Measured values published in publication PMC10326038.
Residue numbers refer to the chain shown, from its start. No constants are given. Whether binding was seen depends on the method and setting. Binding seen in cells or lysates may run through a third protein. Some results given as binding are weak or reduced against the parent protein; the word gives no strength. Sequences can lack the tags named with a protein.

Chains of the proteins cited; added tags and fusions are not shown. Lines headed by an entry give the natural chain unless they say otherwise; changes in a name come on top. A line that says so, or that is headed by a name, gives the form on record, which may keep a tag or linker.
UniProt Q09472: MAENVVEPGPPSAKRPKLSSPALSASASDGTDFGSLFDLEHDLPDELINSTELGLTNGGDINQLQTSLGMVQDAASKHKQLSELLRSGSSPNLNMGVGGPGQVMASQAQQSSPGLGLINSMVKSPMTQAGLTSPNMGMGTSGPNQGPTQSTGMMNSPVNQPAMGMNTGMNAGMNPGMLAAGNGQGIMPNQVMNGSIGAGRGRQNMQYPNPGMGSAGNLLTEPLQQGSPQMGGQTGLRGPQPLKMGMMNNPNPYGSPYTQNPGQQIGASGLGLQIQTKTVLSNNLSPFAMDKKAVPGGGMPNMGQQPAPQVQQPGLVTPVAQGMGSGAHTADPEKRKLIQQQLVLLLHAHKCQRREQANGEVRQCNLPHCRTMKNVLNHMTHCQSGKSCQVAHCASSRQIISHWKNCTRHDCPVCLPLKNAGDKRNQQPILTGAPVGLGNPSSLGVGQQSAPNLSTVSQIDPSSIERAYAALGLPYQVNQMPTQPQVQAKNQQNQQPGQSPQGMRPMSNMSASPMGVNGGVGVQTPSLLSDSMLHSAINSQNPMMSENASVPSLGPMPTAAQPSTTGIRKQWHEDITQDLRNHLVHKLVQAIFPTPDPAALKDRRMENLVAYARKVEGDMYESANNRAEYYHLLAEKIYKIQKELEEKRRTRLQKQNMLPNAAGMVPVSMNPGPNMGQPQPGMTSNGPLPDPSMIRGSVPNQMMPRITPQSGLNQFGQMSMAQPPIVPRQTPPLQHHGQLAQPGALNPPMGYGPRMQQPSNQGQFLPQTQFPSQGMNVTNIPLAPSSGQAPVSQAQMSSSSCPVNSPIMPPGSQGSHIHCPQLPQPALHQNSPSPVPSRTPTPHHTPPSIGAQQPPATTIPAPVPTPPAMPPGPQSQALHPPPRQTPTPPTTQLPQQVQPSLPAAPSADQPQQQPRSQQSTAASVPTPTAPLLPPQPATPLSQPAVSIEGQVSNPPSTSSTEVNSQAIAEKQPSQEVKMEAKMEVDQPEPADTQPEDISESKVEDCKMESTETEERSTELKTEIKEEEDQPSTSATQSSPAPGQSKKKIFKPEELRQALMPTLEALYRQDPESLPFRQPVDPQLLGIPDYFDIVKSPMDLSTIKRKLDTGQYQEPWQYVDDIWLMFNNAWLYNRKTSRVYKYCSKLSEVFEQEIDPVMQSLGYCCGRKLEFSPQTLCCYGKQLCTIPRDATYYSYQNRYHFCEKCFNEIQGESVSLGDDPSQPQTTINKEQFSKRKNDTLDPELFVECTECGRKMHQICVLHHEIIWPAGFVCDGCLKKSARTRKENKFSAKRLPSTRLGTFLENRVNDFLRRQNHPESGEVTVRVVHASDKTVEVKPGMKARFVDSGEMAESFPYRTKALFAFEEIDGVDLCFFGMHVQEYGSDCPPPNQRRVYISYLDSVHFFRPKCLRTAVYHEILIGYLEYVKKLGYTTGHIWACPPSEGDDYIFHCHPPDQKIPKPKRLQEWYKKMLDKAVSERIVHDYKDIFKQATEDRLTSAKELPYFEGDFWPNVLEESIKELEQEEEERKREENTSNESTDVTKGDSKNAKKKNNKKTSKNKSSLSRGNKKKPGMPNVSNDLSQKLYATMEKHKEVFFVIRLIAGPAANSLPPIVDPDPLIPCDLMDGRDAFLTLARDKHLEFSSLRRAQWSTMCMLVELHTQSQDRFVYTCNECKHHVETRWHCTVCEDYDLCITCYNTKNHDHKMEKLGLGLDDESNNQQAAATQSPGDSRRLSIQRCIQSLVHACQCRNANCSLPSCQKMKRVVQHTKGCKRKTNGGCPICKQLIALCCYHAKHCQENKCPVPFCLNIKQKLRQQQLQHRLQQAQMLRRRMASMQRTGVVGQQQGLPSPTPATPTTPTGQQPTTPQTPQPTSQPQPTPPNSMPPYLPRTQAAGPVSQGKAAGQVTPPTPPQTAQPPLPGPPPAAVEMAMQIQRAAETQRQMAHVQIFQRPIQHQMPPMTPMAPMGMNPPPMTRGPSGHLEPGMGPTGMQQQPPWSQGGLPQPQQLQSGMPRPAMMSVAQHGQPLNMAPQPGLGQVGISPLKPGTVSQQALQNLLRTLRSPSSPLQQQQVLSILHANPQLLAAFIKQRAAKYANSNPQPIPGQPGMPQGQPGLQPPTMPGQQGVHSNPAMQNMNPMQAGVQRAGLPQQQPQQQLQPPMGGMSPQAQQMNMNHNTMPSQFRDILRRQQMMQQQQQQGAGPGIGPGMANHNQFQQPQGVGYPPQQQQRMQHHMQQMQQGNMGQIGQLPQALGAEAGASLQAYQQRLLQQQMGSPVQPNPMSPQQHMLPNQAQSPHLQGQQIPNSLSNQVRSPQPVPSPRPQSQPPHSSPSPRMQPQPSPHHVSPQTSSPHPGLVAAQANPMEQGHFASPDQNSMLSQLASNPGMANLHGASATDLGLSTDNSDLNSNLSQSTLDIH
UniProt Q13547: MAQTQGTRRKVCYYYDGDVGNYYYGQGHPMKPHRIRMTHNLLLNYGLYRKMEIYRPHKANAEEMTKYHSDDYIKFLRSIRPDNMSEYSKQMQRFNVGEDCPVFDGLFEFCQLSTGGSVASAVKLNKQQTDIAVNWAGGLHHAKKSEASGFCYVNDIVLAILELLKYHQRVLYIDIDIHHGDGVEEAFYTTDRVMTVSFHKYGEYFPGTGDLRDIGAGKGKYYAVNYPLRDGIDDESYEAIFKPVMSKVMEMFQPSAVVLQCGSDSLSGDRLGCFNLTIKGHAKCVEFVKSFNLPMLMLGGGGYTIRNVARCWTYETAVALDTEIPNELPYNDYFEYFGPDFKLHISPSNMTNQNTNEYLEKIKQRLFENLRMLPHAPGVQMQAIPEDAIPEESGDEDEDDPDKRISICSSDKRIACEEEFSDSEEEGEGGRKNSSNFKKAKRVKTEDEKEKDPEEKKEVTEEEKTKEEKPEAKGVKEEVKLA
C-terminally FLAG-tagged deacetylase inactive HDAC1 (Tyrosine 303 converted to histidine) (Q13547, form named): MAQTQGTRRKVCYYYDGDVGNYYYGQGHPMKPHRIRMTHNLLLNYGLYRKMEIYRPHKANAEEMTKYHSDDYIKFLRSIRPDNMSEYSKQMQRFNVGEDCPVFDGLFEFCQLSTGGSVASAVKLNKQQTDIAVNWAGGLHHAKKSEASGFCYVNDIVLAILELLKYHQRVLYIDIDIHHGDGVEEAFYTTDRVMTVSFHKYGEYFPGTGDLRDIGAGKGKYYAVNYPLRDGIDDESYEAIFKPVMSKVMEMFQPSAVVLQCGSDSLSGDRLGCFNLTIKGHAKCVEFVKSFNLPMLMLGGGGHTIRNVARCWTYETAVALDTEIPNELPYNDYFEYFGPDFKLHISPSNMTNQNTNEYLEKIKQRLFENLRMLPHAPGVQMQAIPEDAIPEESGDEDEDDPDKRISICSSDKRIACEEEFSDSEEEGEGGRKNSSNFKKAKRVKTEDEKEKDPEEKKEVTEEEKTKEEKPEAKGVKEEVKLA
UniProt Q13485: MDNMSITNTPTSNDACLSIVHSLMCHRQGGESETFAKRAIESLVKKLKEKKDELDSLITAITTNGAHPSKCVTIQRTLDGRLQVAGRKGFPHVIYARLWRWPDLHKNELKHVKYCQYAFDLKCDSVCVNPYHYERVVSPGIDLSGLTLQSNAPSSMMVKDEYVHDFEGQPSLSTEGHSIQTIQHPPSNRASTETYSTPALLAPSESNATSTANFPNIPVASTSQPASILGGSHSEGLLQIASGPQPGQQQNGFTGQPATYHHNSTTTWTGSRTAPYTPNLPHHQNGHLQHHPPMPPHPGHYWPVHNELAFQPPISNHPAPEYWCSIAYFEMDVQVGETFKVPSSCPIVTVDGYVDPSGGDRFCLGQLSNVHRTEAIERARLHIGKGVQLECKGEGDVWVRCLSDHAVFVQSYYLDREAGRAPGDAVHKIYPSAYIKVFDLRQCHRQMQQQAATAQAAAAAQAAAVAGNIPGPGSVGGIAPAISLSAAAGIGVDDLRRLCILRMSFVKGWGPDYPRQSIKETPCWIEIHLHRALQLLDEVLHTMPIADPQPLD
UniProt Q15796: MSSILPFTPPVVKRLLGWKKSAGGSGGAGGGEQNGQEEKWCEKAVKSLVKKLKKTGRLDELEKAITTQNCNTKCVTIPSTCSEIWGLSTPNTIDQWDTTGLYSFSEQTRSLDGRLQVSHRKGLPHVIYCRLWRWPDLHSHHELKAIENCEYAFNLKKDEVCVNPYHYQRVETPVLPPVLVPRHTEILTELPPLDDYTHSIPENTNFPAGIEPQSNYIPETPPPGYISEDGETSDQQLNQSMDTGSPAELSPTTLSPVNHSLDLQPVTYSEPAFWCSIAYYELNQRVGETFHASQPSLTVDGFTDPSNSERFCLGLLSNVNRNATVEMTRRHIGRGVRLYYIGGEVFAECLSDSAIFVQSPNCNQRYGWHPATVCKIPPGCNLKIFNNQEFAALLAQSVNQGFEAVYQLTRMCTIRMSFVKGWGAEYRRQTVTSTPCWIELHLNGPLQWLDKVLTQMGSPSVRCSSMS

Experiments:
[1] = biological target: C-terminally hemagglutinin tagged p300 (UniProt Q09472); test: co-IP; Renilla luciferase-based co-immunoprecipitation: lysates (TNTE buffer) of HEK293T cells co-expressing RLuc-fused SnoN forms and p300/HA; α-HA IP; luciferase activity of the immunocomplexes relative to input
[2] = biological target: C-terminally FLAG-tagged histone deacetylase 1 (UniProt Q13547); test: co-IP; Renilla luciferase-based co-immunoprecipitation: lysates (TNTE buffer) of HEK293T cells co-expressing RLuc-fused SnoN forms and HDAC1/FLAG or HDAC1YH/FLAG; α-FLAG IP; luciferase activity of the immunocomplexes relative to input
[3] = biological target: C-terminally FLAG-tagged deacetylase inactive HDAC1 (Tyrosine 303 converted to histidine) (UniProt Q13547); test: as above
[4] = biological target: hemagglutinin-tagged Smad4 (UniProt Q13485); test: co-IP; Renilla luciferase-based co-immunoprecipitation: lysates (TNTE buffer: 50 mM Tris, 150 mM NaCl, 0.5% Triton X-100, 1 mM EDTA) of HEK293T cells co-expressing RLuc-fused SnoN forms, HA/Smad2 or HA/Smad4 and constitutively active TβRI TD; α-HA IP; luciferase activity of the immunocomplexes relative to input
[5] = biological target: hemagglutinin-tagged Smad2 (UniProt Q15796); test: as above

Measured: binding

B1: Renilla Luciferase (RLuc) tagged-SnoN, wild type (protein, UniProt P12757-1 1-684)
chain: MENLQTNFSLVQGSTKKLNGMGDDGSPPAKKMITDIHANGKTINKVPTVKKEHLDDYGEAPVETDGEHVKRTCTSVPETLHLNPSLKHTLAQFHLSSQSSLGGPAAFSARHSQESMSPTVFLPLPSPQVLPGPLLIPSDSSTELTQTVLEGESISCFQVGGEKRLCLPQVLNSVLREFTLQQINTVCDELYIYCSRCTSDQLHILKVLGILPFNAPSCGLITLTDAQRLCNALLRPRTFPQNGSVLPAKSSLAQLKETGSAFEVEHECLGKCQGLFAPQFYVQPDAPCIQCLECCGMFAPQTFVMHSHRSPDKRTCHWGFESAKWHCYLHVNQKYLGTPEEKKLKIILEEMKEKFSMRSGKRNQSKTDAPSGMELQSWYPVIKQEGDHVSQTHSFLHPSYYLYMCDKVVAPNVSLTSAVSQSKELTKTEASKSISRQSEKAHSSGKLQKTVSYPDVSLEEQEKMDLKTSRELCSRLDASISNNSTSKRKSESATCNLVRDINKVGIGLVAAASSPLLVKDVICEDDKGKIMEEVMRTYLKQQEKLNLILQKKQQLQMEVKMLSSSKSMKELTEEQQNLQKELESLQNEHAQRMEEFYVEQKDLEKKLEQIMKQKCTCDSNLEKDKEAEYAGQLAELRQRLDHAEADRQELQDELRQEREARQKLEMMIKELKLQILKSSKTAKE
binds: all assays above

B2: Renilla luciferase-tagged SnoNKdR (SUMO loss of function SnoN, Lysines 50 and 383 converted to arginine) (protein, UniProt P12757-1 1-684)
chain: B1 chain with K50R, K383R
binds: [2] | [4] | [5]
